In PubChem BioAssay AID2685 (National Center for Advancing Translational Sciences (NCATS), 2010):
The list shows a part of the results. Shown are side measurements of this screen, not its main read-out; they come without a call. Compounds called inactive in the main read-out are mostly missing here. The note in brackets gives the kind of curve behind each potency; many fits are weak.

Test: qHTS Assay for Lipid Storage Modulators in Drosophila S3 Cells;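 as to cell number change: cells counted by Cell Tracker Red CMTPX staining in the red channel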
Conditions: BODIPY lipid droplet fluorescence, 18-24 h; for cell number change: measured here: cell count max response, cells fed with added oleic acid
Summary of the method: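 Drosophila S3 cells loaded with oleic acid (400 uM, as added) and compounds at several concentrations; lipid droplets imaged by 488-nm laser-scanning cytometry, 500–530 nm intensity and object ratio to cell channel. Percent activity normalized to 20 uM Triacsin C.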

[1] = measured here: lipid fluorescence (Fed channel) AC50, cells fed with added oleic acid
[2] = measured here: cell number channel AC50, cells fed with added oleic acid

Row | SMILES | cell number change [%] | AC50 [1] | AC50 [2]
1 | Cc1ccc(NC(=O)CCn2c(=O)c3cccn3c3ccccc32)cc1C | -31 | 29.1 µM [falling, partial curve, poor fit] | –
2 | CCn1nc(NC(=O)c2cccnc2)c2cc3ccccc3nc21 | – | 5.8 µM [rising, partial curve, poor fit] | 0.651 µM [rising, full curve, poor fit]
3 | CCOC(=O)c1c(C)[nH]c(C2=NNC(=NC3CC3)SC2)c1C | – | – | 6.51 µM [rising, partial curve, poor fit]
4 | Cc1cccc(OCc2nnc(SCC(=O)Nc3sc(C)c(C)c3C#N)n2C)c1 | -3.38 | 6.51 µM [rising, single point] | –
5 | COc1ccccc1C(=O)Nc1ccc(S(=O)(=O)NC2=NCCCCC2)cc1 | 31.2 | – | –
6 | O=C(OC1CCOC1=O)c1ccc(N2CCCC2)c([N+](=O)[O-])c1 (stereo unspecified) | -34.6 | – | 32.6 µM [falling, single point]
7 | O=C(Nc1cc(C(F)(F)F)ccc1N1CCCC1)c1cccnc1 | -35 | 0.00461 µM [falling, full curve, poor fit] | 1.46 µM [falling, full curve, poor fit]
8 | COc1ccc2c(c1)C(SCC(=O)NCc1ccccc1)CC(C)(C)O2 (stereo unspecified) | -20.1 | 20.6 µM [falling, partial curve, poor fit] | –
9 | COc1cc(C)ccc1OCCOCCOc1ccc([N+](=O)[O-])cc1 | – | 18.4 µM [rising, partial curve, poor fit] | 4.11 µM [rising, partial curve]
10 | Cc1ccc(NC(=O)c2nc[nH]c2C(=O)NCC(=O)OC(C)(C)C)cc1 | 0.637 | 0.92 µM [rising, partial curve, poor fit] | –
11 | NC(=O)c1ccc(NC(=O)COC(=O)CCCN2C(=O)c3cccc4cccc(c34)C2=O)cc1 | 9.96 | 25.9 µM [rising, single point] | –
12 | Cc1cccc2sc(N(CCCN(C)C)C(=O)c3ccc(S(=O)(=O)N4CCc5ccccc5C4)cc3)nc12 | -47.2 | 29.1 µM [falling, single point] | 23.1 µM [falling, single point]
13 | CC1CCc2c(sc(NC(=O)c3ccc(Cn4cc([N+](=O)[O-])cn4)o3)c2C#N)C1 (stereo unspecified) | -11.1 | 20.6 µM [falling, single point] | –
14 | COc1ccc(NC(=O)C(=O)NCCN2CCN(C(=O)c3ccc(C)cc3)CC2)cc1 | -15.2 | 29.1 µM [rising, single point] | –
15 | CN(C)c1ccc(-c2cccc(C3CC=CC4C3C(=O)N(Cc3ccccc3)C4c3ccc(C(F)(F)F)cc3)c2)cc1 (stereo unspecified) | 30.6 | – | 13 µM [rising, single point]
16 | O=C(CSc1ccc(F)cc1)Nc1ccc(N2CCOCC2)cc1 | -14.9 | 29.1 µM [rising, single point] | –
17 | COCCNC(=O)C(c1ccc(C)cc1)N(C(=O)C(=O)NC1CCCC1)c1ccc2c(c1)OCCO2 (stereo unspecified) | -3.46 | – | –
18 | Cc1ccccc1-c1nnn(CC(=O)NCc2ccc3c(c2)OCO3)n1 | -40.4 | – | 0.651 µM [falling, full curve, poor fit]
19 | O=C(CSc1nc2c(c(=O)n1-c1ccc(Cl)cc1)SCC2)NCc1ccco1 | 2.4 | 6.51 µM [falling, partial curve, poor fit] | –
20 | CCCCN(C(=O)CCC(=O)Nc1cc(C)on1)C(C(=O)NC(C)(C)C)c1ccccc1Cl (stereo unspecified) | 4.78 | – | –

Excerpt: nos. 5 to 7
Row | SMILES | cell number change [%] | AC50 [1] | AC50 [2]
5 | COc1ccccc1C(=O)Nc1ccc(S(=O)(=O)NC2=NCCCCC2)cc1 | 31.2 | – | –
6 | O=C(OC1CCOC1=O)c1ccc(N2CCCC2)c([N+](=O)[O-])c1 (stereo unspecified) | -34.6 | – | 32.6 µM [falling, single point]
7 | O=C(Nc1cc(C(F)(F)F)ccc1N1CCCC1)c1cccnc1 | -35 | 0.00461 µM [falling, full curve, poor fit] | 1.46 µM [falling, full curve, poor fit]

(next part)

Row | SMILES | cell number change [%] | AC50 [1] | AC50 [2]
21 | COC(=O)c1ccc(N2CCC(C)CC2)c(N)c1 | 45.2 | 2.91 µM [rising, partial curve] | 7.31 µM [rising, partial curve, poor fit]
22 | Cc1cc(Cl)c2oc(C(=O)N(CCO)Cc3ccccc3)c(C)c2c1 | -11 | 6.51 µM [rising, single point] | –
23 | Cc1ccc(C)c(S(=O)(=O)N2C(=S)NC(=O)C2C(C)C)c1 (stereo unspecified) | -5.46 | – | 0.82 µM [falling, full curve, poor fit]
24 | COc1cc(N)c(Cl)cc1C(=O)OCC(=O)N(C)C1CCCCC1 | 1.18 | 0.259 µM [rising, partial curve, poor fit] | –
25 | O=c1cc(N2CCC3(CC2)OCCO3)[nH]c(=O)n1-c1ccc(Cl)cc1 | -14.7 | – | –
26 | Cc1cc(C)n(-c2nc3ccccc3nc2N2CCCCCC2)n1 | -17.3 | – | –
27 | Cc1ccc(-n2cc(C(=O)c3ccc(F)cc3)nn2)cc1Cl | -83.1 | 0.092 µM [rising, full curve, poor fit] | –
28 | CC(=O)Nc1ccccc1NC(=O)C/C(C)=N/NC(=O)Cc1cccc2ccccc12 | 8.02 | 29.1 µM [falling, single point] | –
29 | CCC(c1nc2ccccc2c(=O)n1-c1nc2ccccc2s1)N1C(=O)c2ccccc2C1=O (stereo unspecified) | 10.8 | 2.06 µM [rising, partial curve, poor fit] | –
30 | CC(=O)Nc1ccc(OS(=O)(=O)c2c(C)cc(C)cc2C)cc1 | -0.088 | 6.51 µM [falling, single point] | 4.11 µM [falling, single point]
31 | COc1ccc(S(=O)(=O)Nc2ccccc2C(=O)Nc2nc(-c3ccc(F)cc3)cs2)cc1OC | -9.74 | – | –
32 | O=C(Cc1ccc(F)cc1)Nc1ccc(F)c([N+](=O)[O-])c1 | -21.3 | 0.651 µM [rising, full curve] | 0.82 µM [rising, full curve]
33 | CCOc1cccc(OCCOc2ccc(C(=O)c3ccccc3)cc2)c1 | 9.61 | 16.4 µM [rising, partial curve] | –
34 | Cc1cc(C)n(C(=O)CNC(=O)Cc2ccccc2)n1 | -10.4 | 10.3 µM [rising, partial curve, poor fit] | –
35 | O=C1CN(CC(=O)N2CCCCC2)c2ccccc2O1 | 14.4 | 0.058 µM [falling, full curve] | –
36 | CCOC(=O)c1sc(C)c(C(=O)NC2CCCCC2)c1N | -11.7 | 5.8 µM [falling, full curve, poor fit] | –
37 | COc1ccc(NC(=O)C2CCCN2C(=O)OC(C)(C)C)cc1 (stereo unspecified) | 3.21 | 0.58 µM [rising, single point] | –
38 | CC(=O)N1CCN(c2ccc(NC(=O)c3ccc([N+](=O)[O-])cc3Cl)cc2)CC1 | 15.9 | 29.1 µM [rising, single point] | –
39 | CCc1ccc(N(CC(=O)NCCc2ccccc2)C(=O)CCC(=O)Nc2ccccn2)cc1 | -4.35 | 0.651 µM [rising, partial curve, poor fit] | –
40 | COCCn1c(=NC(=O)/C=C/c2ccccc2Cl)sc2cc(NC(C)=O)ccc21 | – | – | 6.51 µM [falling, single point]

Row | SMILES | cell number change [%] | AC50 [1] | AC50 [2]
41 | O=C(Nc1ccc2c(c1)OCCO2)c1cc(-c2ccccc2)nc2ccccc12 | 105 | 29.1 µM [rising, partial curve] | –
42 | N#Cc1c(Nc2ccccc2Cl)s[nH]c1=O | -48.3 | 13 µM [falling, partial curve] | 9.2 µM [falling, partial curve, poor fit]
43 | CCO/C=C/C(O)(CNC(=O)COc1ccccc1F)C(F)(F)F (stereo unspecified) | 0.14 | – | –
44 | Cc1cc(-c2nc3ncccc3o2)ccc1NC(=S)NC(=O)C(C)C | -43.9 | – | –
45 | O=C(COc1cccc(F)c1)Nc1nc(-c2ccncc2)cs1 | 13.2 | – | –
46 | O=S(=O)(c1ccc(-c2n[nH]c(=S)o2)cc1)N1CCCCC1 | 11.5 | 0.116 µM [falling, single point] | 0.0461 µM [rising, full curve]
47 | CC1(C(=O)O)CCC(C(=O)Nc2ccc(F)cc2)C1(C)C (stereo unspecified) | 9.47 | – | –
48 | Cc1ccc(Cl)cc1N1CCN(S(=O)(=O)c2ccc3[nH]c(=O)c(=O)[nH]c3c2)CC1 | -55.3 | 25.9 µM [falling, partial curve, poor fit] | 32.6 µM [falling, partial curve]
49 | CC(=O)Nc1ccc(OCCOc2ccc([N+](=O)[O-])cc2)cc1 | 10.6 | 1.84 µM [rising, partial curve] | –
50 | COc1ccc(S(=O)(=O)N2CCC3(CC2)OCCN3S(=O)(=O)c2cccs2)cc1OC | – | – | 0.326 µM [rising, full curve, poor fit]
51 | O=c1cc(-c2ccccc2)nc2cc(-c3ccco3)[nH]n12 | -51.4 | – | 29.1 µM [falling, single point]
52 | O=C(c1cccc(F)c1)N1CCCc2ccccc21 | 3.52 | 11.6 µM [rising, partial curve] | –
53 | COc1ccc(NC(=O)CC2Oc3ccc(C)cc3NC2=O)cc1 (stereo unspecified) | 29.5 | 7.31 µM [rising, full curve, poor fit] | –
54 | CC(=O)OCC(=O)[C@@]1(O)CC[C@H]2[C@@H]3CCC4=CC(=O)CC[C@]4(C)[C@H]3[C@@H](O)C[C@@]21C | 25.9 | 29.1 µM [rising, single point] | –
55 | Cc1ccc2[nH]c3c(c2c1)CN(C(=O)CN1CCN(c2ccccc2F)CC1)CC3 | – | – | 0.461 µM [rising, partial curve]
56 | Cc1nn(-c2ccccc2)c(C)c1[N+](=O)[O-] | – | – | 0.58 µM [falling, full curve, poor fit]
57 | CCOc1ccc(NC(=O)CSc2ncn[nH]2)cc1 | 26.7 | 0.731 µM [rising, full curve] | –
58 | Oc1c(Cl)cc(Cl)cc1C1=NNC(c2ccc(Cl)cc2)C1 (stereo unspecified) | -22.2 | 20.6 µM [falling, single point] | –
59 | CCOc1ccc(N2CC(C(=O)N3CCCc4ccccc43)CC2=O)cc1 (stereo unspecified) | 24.8 | 29.1 µM [falling, single point] | –
